Source: PubChem BioAssay (EPA / NIEHS)
Where “and” joins values, the source holds several entries; their conditions need not be identical. Equal entries are not always repeated. The shares of active, inactive and inconclusive entries below differ from those in the screen. Potencies of inconclusive entries are doubtful fits and often do not repeat. Calls of active or inactive are those of the source. Rule for the calls: active = hit-call score of the fitted dose curve at least 0.9, where 1 is the maximum; inconclusive = response in the unintended direction; inactive = score below 0.9.

By UniProt entry, the sequences of proteins in these tests, tags left out. Where a name states a change or a piece, a line headed by the entry shows the natural chain unless it says otherwise.
UniProt Q01717: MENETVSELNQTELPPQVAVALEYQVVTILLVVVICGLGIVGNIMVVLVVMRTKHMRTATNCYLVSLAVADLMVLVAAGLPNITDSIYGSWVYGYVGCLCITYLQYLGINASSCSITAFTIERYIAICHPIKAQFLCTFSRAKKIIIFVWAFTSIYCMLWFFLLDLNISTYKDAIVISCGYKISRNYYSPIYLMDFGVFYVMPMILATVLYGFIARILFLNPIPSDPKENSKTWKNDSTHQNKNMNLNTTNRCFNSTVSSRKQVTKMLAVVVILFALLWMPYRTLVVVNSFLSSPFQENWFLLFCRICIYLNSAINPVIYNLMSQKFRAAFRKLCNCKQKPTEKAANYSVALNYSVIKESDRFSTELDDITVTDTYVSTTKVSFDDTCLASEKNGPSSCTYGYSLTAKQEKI

molecular target: rat Thyrotropin Releasing Hormone Receptor (TRH), Trhr (gene 25570) (UniProt Q01717); experiment: NVS_GPCR_rTRH: NovaScreen (NVS) G Protein-Coupled Receptor Assay for rat Thyrotropin Releasing Hormone Receptor (TRH) (AID 2283329);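 note: hit means lower bound tracer signal versus DMSO baseline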
Protocol: NVS_GPCR_rTRH is a biochemical, single-readout assay that uses extracted gene-proteins from Rat forebrain membranes in a tissue-based cell-free assay. Measurements were taken 4 hours after chemical dosing in a 48-well plate.NVS_GPCR_rTRH is one of one assay component(s) measured or calculated from the NVS_GPCR_rTRH assay. It is designed to make measurements of radioligand binding, a form of binding reporter, as detected with scintillation counting signals by Filter-based radiodetection technology.Data from the assay component NVS_GPCR_rTRH was analyzed into 1 assay endpoint. This assay endpoint, NVS_GPCR_rTRH, was analyzed in the positive analysis fitting direction relative to DMSO as the negative control and baseline of activity. Using a type of binding reporter, loss-of-signal activity can be used to understand changes in the binding as they relate to the gene Trhr. Furthermore, this assay endpoint can be referred to as a primary readout, because the performed assay has only produced 1 assay endpoint. To generalize the intended target to other relatable targets, this assay endpoint is annotated to the gpcr intended target family, where the subfamily is rhodopsin-like receptor.
Binding assays used specific radioligands (tritiated, iodinated) with non-radioactive competitive displacement ligands in agonist or antagonist protocols (as indicated) and various reference compounds and inhibitors to titrate specific binding to receptors and transporters. Most enzyme assays (CYPs, kinases, phosphatases, proteases, HDACs) used recombinant protein and specific substrates (fluorescence mostly, some colorimetric and radioactive) and inhibitors, followed by a biochemical separation of substrate and product. All assays for the biochemical HTS were initially run in duplicate at a single concentration (10 uM for CYP450 assays and 25 uM for all others). […] Each assay was run with positive and negative controls, and concurrent controls on every plate. The follow-up (secondary) screen tested active chemical-pairs in concentration series, as well as a few additional assays not tested in the primary screen, some selected negative inactives, and several cases re-run in the concentration series for confirmatory purposes.

SMILES	AC50	outcome
C=O	inconclusive: 26000 nM	
CCOc1ccccc1O	inconclusive: 84.2 nM	
CCCCCCCCCCOC(=O)c1ccccc1C(=O)OCCCCCCCC	inconclusive: 156 nM	
CCCCC1CCC(O)CC1 (stereo not given)	inconclusive: 73.3 nM	
Cc1[nH]cnc1C[C@H]1CCc2c(C)c3ccccc3n2C1=O		inactive
CC(C)c1c(C(=O)Nc2ccccc2)c(-c2ccccc2)c(-c2ccc(F)cc2)n1CC[C@@H](O)C[C@@H](O)CC(=O)O	inconclusive: 22500 nM	
O=C[C@@H](O)[C@H](O)[C@H](O)CO	inconclusive: 6800 nM	
CCCCCCCCCC(C)=O	inconclusive: 587 nM	
O=C1NC(=O)C2CC=CCC12 (stereo not given)	inconclusive: 114 nM	
CCCCCCCCCCCCc1ccccc1	inconclusive: 4960 nM	
CCOC(=O)C1OC1c1ccccc1 (stereo not given)		inactive
CC(=O)O[C@@H]1CC2CCC1(C)C2(C)C (stereo not given in full)	inconclusive: 125 nM	
CCCCCCCC(=O)N(C)C	inconclusive: 31.8 nM	
CCCCCC(C)=O	inconclusive: 1190 nM	
CCOC(=O)[C@@H](C)Oc1ccc(Oc2nc3ccc(Cl)cc3o2)cc1		inactive
CC(C)(C)c1cc(Cc2cc(C(C)(C)C)c(O)c(C(C)(C)C)c2)cc(C(C)(C)C)c1O		inactive
O=C1OC2(c3ccccc31)c1cc(I)c(O)c(I)c1Oc1c2cc(I)c(O)c1I	inconclusive: 36.9 nM	
CCCC[C@H]1CN(CC2CCOCC2)C(=O)OC12CCN(C1(C)CCN(C(=O)c3c(C)ncnc3C)CC1)CC2	inconclusive: 180 nM	
C[Si](C)(C)O[Si](C)(C)O[Si](C)(C)C	inconclusive: 165 nM	
CC(C)CCCCCCCCCCCCCCC(=O)O	inconclusive: 46.2 nM	

Pulled one by one from above (3):
SMILES	AC50	outcome
O=C1OC2(c3ccccc31)c1cc(I)c(O)c(I)c1Oc1c2cc(I)c(O)c1I	inconclusive: 36.9 nM	
CCCCCC(C)=O	inconclusive: 1190 nM	
CCOC(=O)[C@@H](C)Oc1ccc(Oc2nc3ccc(Cl)cc3o2)cc1		inactive

Following part:

SMILES	AC50	outcome
c1ccc(CNc2ncnc3nc[nH]c23)cc1	inconclusive: 7470 nM	
CCCCCCCCOS(=O)(=O)O		inactive
CCCCNS(=O)(=O)c1ccc(C)cc1	inconclusive: 4960 nM	
O=C1c2ccccc2C(=O)N1CCc1noc(-c2ccc(CN3CCCCCC3)s2)n1		inactive
CC(C)Nc1nc(N)nc(Cl)n1	inconclusive: 249 nM	
CCCC1CCC(=O)CC1	inconclusive: 149 nM	
Cc1ccc(C)c(S(=O)(=O)O)c1	active: 194 nM and inconclusive: 25 µM	
CCCCCCO		inactive
CCCCCCCCCCCCN		inactive
O=C(O)C1CCC(C(=O)O)CC1 (stereo not given)	inconclusive: 140 nM	
COC(=O)[C@]1(C)CCC[C@@]2(C)[C@H]1CC=C1C=C(C(C)C)CC[C@@H]12		inactive
COC(=O)c1ccccc1S(=O)(=O)NC(=O)Nc1nc(OC(F)F)cc(OC(F)F)n1		inactive
CCCCCCCCCOS(=O)(=O)O	inconclusive: 1360 nM	
O=C(O)/C=C\C(=O)O	inconclusive: 1820 nM	
CC(=O)N(C)C		inactive
C=CCCCCCCCCCCCC	inconclusive: 1080 nM	
CCCCOC(=O)C(C)O (stereo not given)		inactive
C=C[Si]1(C)O[Si](C)(C=C)O[Si](C)(C=C)O[Si](C)(C=C)O1 (stereo not given)		inactive
CC1(C)[C@@H]2CC[C@@]1(C)[C@H](O)C2		inactive
Cc1c(C(=O)c2c[nH]n(C)c2=O)ccc(S(C)(=O)=O)c1C1=NOCC1	inconclusive: 2130 nM	
